# Reference: US7879897B2, “Pesticidal 5-substituted-oxyalkylamino-1-arylpyrazole derivatives” (Merial Limited, priority 2003, dated 2011)
# Some results were stated once for a whole list of compounds, not compound by compound.
# Test system: Ctenocephalides felis (Cat flea)
# Assay: METHOD A: Screening method to test systemicity of compounds against Ctenocephalides felis (Cat flea), artificial dog test with treated bovine blood
# Type: in vivo
# Conditions: test concentration of 500 ppm or less; compound solution in bovine blood (37° C.); 10 adults; assessment at 24 and 48 hours after application
row,Structure (SMILES),control of Ctenocephalides felis
1,CCOc1ccc(NC(=O)OCCN(C)c2c(S(=O)(=O)C(F)(F)F)c(C#N)nn2-c2c(Cl)cc(C(F)(F)F)cc2Cl)cc1 [Compound 69],at least 80%
2,"Cc1ccc(S(=O)(=O)OCCN(C)c2c(S(=O)(=O)C(F)(F)F)c(C#N)nn2-c2c(Cl)cc(C(F)(F)F)cc2Cl)cc1 [Compound 93, 1-(2,6-Dichloro-4-trifluoromethylphenyl)-3-cyano-5-{N-methyl-N-[2-(4-toluenesulfonyloxy)ethyl]amino}-4-trifluoromethylsulfonylpyrazole]",at least 80%
